For one molecule, binding results are on record in patent publication US20060294618A1 (CORNELL RESEARCH FOUNDATION, published 2006).

Sequences of proteins named here, by UniProt entry; tags and fusion partners are left off. Residues count along the entry.
UniProt P04517, residues 1850-2037: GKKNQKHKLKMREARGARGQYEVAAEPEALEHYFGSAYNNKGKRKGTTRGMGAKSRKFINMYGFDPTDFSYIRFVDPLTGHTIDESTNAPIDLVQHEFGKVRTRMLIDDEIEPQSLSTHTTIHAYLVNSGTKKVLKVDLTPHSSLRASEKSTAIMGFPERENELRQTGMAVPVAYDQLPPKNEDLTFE

No constants are given. Whether binding was seen depends on the method and setting. In cells and extracts the contact can be indirect. Some entries that bind do so weakly or less than the wild type.

The target in this assay is GST-VPgHAT (Tobacco etch virus, strain HAT) (UniProt P04517). The assay can be described thus: GST pull-down, 35S-labeled in vitro-translated eIF4E.

B1: eIF4E-RN (pvr1^+), 35S-labeled, translated in vitro from pET16b (protein)
chain: MATAEMEKTTTFDEAEKVKLNANEADDEVEEGEIVEETDDTTSYLSKEIATKHPLEHSWTFWFDNPVAKSKQAAWGSSLRNVYTFSTVEDFWGAYNNIHHPSKLVVGADLHCFKHKIEPKWEDPVCANGGTWKMSFSKGKSDTSWLYTLLAMIGHQFDHEDEICGAVVSVRGKGEKISLWTKNAANETAQVSIGKQWKQFLDYSDSVGFIFHDDAKRLDRNAKNRYTV
modifications: 35S-methionine label from in vitro translation
Regarding B1, the binding result is “binds”.
